In paper PMC11315935, “Multi-layered heterochromatin interaction as a switch for DIM2-mediated DNA methylation” (Nature Communications, 2024):
These are yes or no findings as the source states them, for the method shown. Some binding calls cover weakened binding; strength is not graded here.

How the values were obtained:
[1] = molecular target: histone H3 peptide (residues 1-24) with H3K9me3, plus a C-terminal tryptophan (UniProt P68431); assay: ITC; 0.04-0.05 mM protein titrated with 0.5 mM histone peptide at 7 °C, 20 mM Tris-HCl pH 7.5, 100 mM NaCl, 1 mM β-mercaptoethanol; single-site fit; apparent; both purified
[2] = molecular target: histone H3 peptide (residues 1-24) with H3K9me3, plus a C-terminal tryptophan (UniProt P68431); assay: condition: 0.04–0.05 mM DIM2 titrated with 0.5 mM histone peptide; ITC; 0.04-0.05 mM protein titrated with 0.5 mM histone peptide at 7 °C, 20 mM Tris-HCl pH 7.5, 100 mM NaCl, 1 mM β-mercaptoethanol; single-site fit; apparent; both purified

B1: DIM2 RFTS domain (residues 1-389) (domain or fragment, UniProt Q3Y3Z1 1-389)
chain: MDSPDRSHGGMFIDVPAETMGFQEDYLDMFASVLSQGLAKEGDYAHHQPLPAGKEECLEPIAVATTITPSPDDPQLQLQLELEQQFQTESGLNGVDPAPAPESEDEADLPDGFSDESPDDDFVVQRSKHITVDLPVSTLINPRSTFQRIDENDNLVPPPQSTPERVAVEDLLKAAKAAGKNKEDYIEFELHDFNFYVNYAYHPQEMRPIQLVATKVLHDKYYFDGVLKYGNTKHYVTGMQVLELPVGNYGASLHSVKGQIWVRSKHNAKKEIYYLLKKPAFEYQRYYQPFLWIADLGKHVVDYCTRMVERKREVTLGCFKSDFIQWASKAHGKSKAFQNWRAQHPSDDFRTSVAANIGYIWKEINGVAGAKRAAGDQLFRELMIVKPGQ
binding [1]: binds

B2: DIM2 (residues 1-1242) W261A/W581A double mutant (domain or fragment, UniProt Q3Y3Z1 1-1242)
chain: MDSPDRSHGGMFIDVPAETMGFQEDYLDMFASVLSQGLAKEGDYAHHQPLPAGKEECLEPIAVATTITPSPDDPQLQLQLELEQQFQTESGLNGVDPAPAPESEDEADLPDGFSDESPDDDFVVQRSKHITVDLPVSTLINPRSTFQRIDENDNLVPPPQSTPERVAVEDLLKAAKAAGKNKEDYIEFELHDFNFYVNYAYHPQEMRPIQLVATKVLHDKYYFDGVLKYGNTKHYVTGMQVLELPVGNYGASLHSVKGQIAVRSKHNAKKEIYYLLKKPAFEYQRYYQPFLWIADLGKHVVDYCTRMVERKREVTLGCFKSDFIQWASKAHGKSKAFQNWRAQHPSDDFRTSVAANIGYIWKEINGVAGAKRAAGDQLFRELMIVKPGQYFRQEVPPGPVVTEGDRTVAATIVTPYIKECFGHMILGKVLRLAGEDAEKEKEVKLAKRLKIENKNATKADTKDDMKNDTATESLPTPLRSLPVQVLEATPIESDIVSIVSSDLPPSENNPPPLTNGSVKPKAKANPKPKPSTQPLHAAHVKYLSQELVNKIKVGDVISTPRDDSSNTDTKWKPTDTDDHRAFGLVQRVHTAKTKSSGRGLNSKSFDVIWFYRPEDTPCCAMKYKWRNELFLSNHCTCQEGHHARVKGNEVLAVHPVDWFGTPESNKGEFFVRQLYESEQRRWITLQKDHLTCYHNQPPKPPTAPYKPGDTVLATLSPSDKFSDPYEVVEYFTQGEKETAFVRLRKLLRRRKVDRQDAPANELVYTEDLVDVRAERIVGKCIMRCFRPDERVPSPYDRGGTGNMFFITHRQDHGRCVPLDTLPPTLRQGFNPLGNLGKPKLRGMDLYCGGGNFGRGLEEGGVVEMRWANDIWDKAIHTYMANTPDPNKTNPFLGSVDDLLRLALEGKFSDNVPRPGEVDFIAAGSPCPGFSLLTQDKKVLNQVKNQSLVASFASFVDFYRPKYGVLENVSGIVQTFVNRKQDVLSQLFCALVGMGYQAQLILGDAWAHGAPQSRERVFLYFAAPGLPLPDPPLPSHSHYRVKNRNIGFLCNGESYVQRSFIPTAFKFVSAGEGTADLPKIGDGKPDACVRFPDHRLASGITPYIRAQYACIPTHPYGMNFIKAWNNGNGVMSKSDRDLFPSEGKTRTSDASVGWKRLNPKTLFPTVTTTSNPSDARMGPGLHWDEDRPYTVQEMRRAQGYLDEEVLVGRTTDQWKLVGNSVSRHMALAIGLKFREAWLGTLYD
binding [2]: no binding
